For this assay, the target named is T1, nectin-1 V-domain fused to maltose binding protein (N1V-MBP), wild type (human) (UniProt Q15223).
T1 sequence: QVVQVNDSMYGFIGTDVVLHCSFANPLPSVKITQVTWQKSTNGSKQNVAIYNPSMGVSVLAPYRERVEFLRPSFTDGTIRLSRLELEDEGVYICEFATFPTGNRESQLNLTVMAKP
Briefly: ELISA; N1V-MBP proteins immobilised on a 96 well plate (10 µg/ml in PBS, overnight at 4°C); purified gD serially diluted in PBS-T milk; bound gD detected with polyclonal rabbit serum R8; both purified. (In general: An ELISA detects its analyte on a solid surface through an enzyme-linked reagent.)

These are yes or no findings as the source states them, for the method shown. Binding calls can cover weak binding; strength is not graded here. Tags and fused reporters may be left off the sequences shown.

Regarding “HSV-1 glycoprotein D ectodomain truncated at residue 306 (gD306t) (herpes simplex virus type 1) (domain or fragment)”, the binding result is recorded as “binds”.

The values above are taken from article PMC3182920.
